The other results are listed elsewhere or left out.

The chains behind the UniProt entries cited, without tags or fusion partners.
UniProt Q0JBA9, entry or part of it: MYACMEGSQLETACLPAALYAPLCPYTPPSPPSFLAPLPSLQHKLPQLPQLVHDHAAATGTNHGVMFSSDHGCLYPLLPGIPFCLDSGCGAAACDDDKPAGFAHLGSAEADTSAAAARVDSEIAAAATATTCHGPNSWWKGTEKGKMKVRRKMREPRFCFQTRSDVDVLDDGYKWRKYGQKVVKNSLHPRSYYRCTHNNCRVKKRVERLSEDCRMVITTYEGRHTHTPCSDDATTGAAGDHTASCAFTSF

From PMC7819943, “Rice protein-binding microarrays: a tool to detect cis-acting elements near promoter regions in rice” come the findings set out here.

The target of the assay is OsWRKY34 (Oryza sativa, UniProt Q0JBA9 1-250). The assay can be described thus: protein-binding microarray (RPBM); PBS, 2% BSA, 51.3 ng/ul salmon testes DNA, 50 uM zinc acetate, 200 nM TF, 25 C, 1 h; high values mean tight binding. To be noted: protein: recombinant; tags: N-terminal polyhistidine and DsRed monomer fusion (pET32a); label: CyDye5-dUTP incorporated in the synthesized complementary strand; 3' TTTTT single-stranded linker to array surface; dsDNA, one strand shown. The method in brief:
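Binding signal is defined as the fluorescence intensity of each feature in arbitrary units, read on an Axon 4000B scanner. Transcription factors with N-terminal polyhistidine and DsRed fusions came from E. coli BL21-CodonPlus and were purified on Ni–NTA. They were incubated at 200 nM for 1 h at 25 °C on a custom Agilent array that had been made double-stranded with Cy5-dUTP, with 50 µM zinc acetate present, and the array was washed.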
In the case of “AACTTCCTTCACGGGCTGCAGCTTCGCGCCACGAGCCTTTCGGAGTCACCTAGTGCAG”, the binding signal was 8060 fluorescence intensity (a.u.).
On to “TCTTCATCATTTTTTTATTCAATCCATTCTATGCCATCAACGGAGTCACCTAGTGCAG”, for which the binding signal is 8170 fluorescence intensity (a.u.).
With “TCGGGTCTGTGCTGTGCTCTTCCTAATTGGTTTGATTTTACGGAGTCACCTAGTGCAG”, the binding signal was 10300 fluorescence intensity (a.u.).
Turning to “TCTCTTACTACCTTCCACGCTTCCATCCCACGTCTTCTCCCGGAGTCACCTAGTGCAG”, the binding signal was 8560 fluorescence intensity (a.u.).
Consider “GTGGCTCTATACTATCATCCGCGTTATTTCCTGTGCATAACGGAGTCACCTAGTGCAG”, for which the binding signal was 11500 fluorescence intensity (a.u.).
The figure for “GTCTCGGTCTTTTCGATCTCGGTCTTTTCGGTTCGGTCTTCGGAGTCACCTAGTGCAG” is 9340 fluorescence intensity (a.u.); for “TCCCTTCTCTCTCTATGTTTCTCTTCCTCTCCACTTCGGTCGGAGTCACCTAGTGCAG” it is 8080 fluorescence intensity (a.u.).
For “GGGCGGGTGATCGCTGGGCGGGTGGGTGAGCGATCACCCACGGAGTCACCTAGTGCAG”, the binding signal is 14800 fluorescence intensity (a.u.).
Next, “TTTTTCCCCTTTCTTTTTTCATTTATTTTTTCAAAATTGACGGAGTCACCTAGTGCAG”: 8390 fluorescence intensity (a.u.); “ACCATTGTTTCTTCTCCAACTCTCTCCCTGGCGGCTGCCTCGGAGTCACCTAGTGCAG”: 8220 fluorescence intensity (a.u.).
With “TTCTTCTTCTTCTTCCAGTGCTCGGCTCTCTCTTTTACTCCGGAGTCACCTAGTGCAG”, the binding signal was 8530 fluorescence intensity (a.u.).
Next, “GACCAGGCTGTTTACCTTCGGTGCACACGATAGCGCTTGGCGGAGTCACCTAGTGCAG”: 8070 fluorescence intensity (a.u.).
The figure for “CGCATTTTTCTAACCGTTGAACGATATGTTTTTTAAATATCGGAGTCACCTAGTGCAG” is 8550 fluorescence intensity (a.u.); for “TCCTAGCATGTGTTTAGATTGGCCCAAAGTTTAGAATTTGCGGAGTCACCTAGTGCAG” it is 8830 fluorescence intensity (a.u.).
“CGCCCACACACACCCACACACGTCCCTCCAGATCTCGCACCGGAGTCACCTAGTGCAG”: the binding signal is 8200 fluorescence intensity (a.u.).
The figure for “GCAAACCGCGCGGTTTGGCGCGGTTACCGCGCGGTTTGACCGGAGTCACCTAGTGCAG” is 8060 fluorescence intensity (a.u.).
The figure for “CAAACATACACTCAGCCTTAATCCTTGCATTACTTCTCTACGGAGTCACCTAGTGCAG” is 11900 fluorescence intensity (a.u.).
For “ACCGCCTCCGCTCACCGGCATGCGCGCGCCGGCCTACGTGCGGAGTCACCTAGTGCAG”, the binding signal was 8660 fluorescence intensity (a.u.).
Regarding “TTTGCAGTTTTTTACACTTGCTGGGAGCCCTGAGAATAGCCGGAGTCACCTAGTGCAG”, the binding signal was 8230 fluorescence intensity (a.u.).
For “CCTCGGCCTATAGTGTTGGGTTTGGGTGTTGGTTTTTCCCCGGAGTCACCTAGTGCAG”, the binding signal was 15600 fluorescence intensity (a.u.).
As for “CTCCCCATTCTTCTCCTGTCTCTCTCGCCGCCTCCAATTCCGGAGTCACCTAGTGCAG”, the binding signal is 11200 fluorescence intensity (a.u.).
Next, “TCGCGTTACTGCTGTTCGTGCTGGTGGTGGCGGCGGCGGCCGGAGTCACCTAGTGCAG”: 8650 fluorescence intensity (a.u.).
The figure for “GGGAGGGAGGGGCTCGCTGTCTCATCACTCTGTAACCGATCGGAGTCACCTAGTGCAG” is 12300 fluorescence intensity (a.u.); for “CTCTCTCTCTCTCTCTCTCTTTCCTTTCTTTCCCTGCTAACGGAGTCACCTAGTGCAG” it is 8500 fluorescence intensity (a.u.).
The figure for “TTCTTCCTCCGTCAGTTCATCATCTCTCTGTGTGTGTTTTCGGAGTCACCTAGTGCAG” is 11400 fluorescence intensity (a.u.); for “AATCTATCCCAGCCTAAATCTCACTGTTTCATGCACAACTCGGAGTCACCTAGTGCAG” it is 8350 fluorescence intensity (a.u.).
Turning to “GATTATCACATTTTATATTGTATATCCTGCTTCTTTTTTTCGGAGTCACCTAGTGCAG”, the binding signal was 14000 fluorescence intensity (a.u.).
The figure for “ACCTTTCGTCTATGATATCATATCTGGTCTCACTTTAGCACGGAGTCACCTAGTGCAG” is 9870 fluorescence intensity (a.u.); for “CTCTCTCTCCGTTTTTCTTCTCTTCCTACTAAACCCCTCACGGAGTCACCTAGTGCAG” it is 9520 fluorescence intensity (a.u.); for “ATCGTTAAGCCTCAGTTTTTTTTTTTTTGGCACGAAGCTCCGGAGTCACCTAGTGCAG” it is 8330 fluorescence intensity (a.u.).
Next, “TGGGCTCTCGCTTGCTCTTGTGTTCTTCCTTTTCCCTACGCGGAGTCACCTAGTGCAG”: 13200 fluorescence intensity (a.u.); “AAATTTAAAGTAATTTGACTTTGAAAGTCAAAACTTGTAACGGAGTCACCTAGTGCAG”: 8600 fluorescence intensity (a.u.).
As for “CTCACCGCGCCGCTCACCTCCTCAAGACCACCACCCACCACGGAGTCACCTAGTGCAG”, the binding signal is 9730 fluorescence intensity (a.u.).
Take “TTTTCTGGTTTATGGGGTAATTCGGATGACCGCGATAGTTCGGAGTCACCTAGTGCAG”: the binding signal is 8030 fluorescence intensity (a.u.).
As to “ATTCCCATTGTCATGCTGCCACTAATCTGATTGTGTCACTCGGAGTCACCTAGTGCAG”, the binding signal is 10600 fluorescence intensity (a.u.).
Regarding “CCCTCCTTCTCACTTTTCTTCCTCTCGGGCGCCTCTCCTCCGGAGTCACCTAGTGCAG”, the binding signal is 10700 fluorescence intensity (a.u.).
The figure for “CACAGCCACCAGTACTGCCTATATATACACGCTCTCTCCACGGAGTCACCTAGTGCAG” is 8560 fluorescence intensity (a.u.); for “ACATTTCTTTTCTCATTTAATTTTATCTACTTTTTTAATCCGGAGTCACCTAGTGCAG” it is 8050 fluorescence intensity (a.u.); for “CCGATTTTTCACCTTTGTCCCATTCCCACACCGCTCCGTGCGGAGTCACCTAGTGCAG” it is 10400 fluorescence intensity (a.u.).
The figure for “AAACCGGTCACTTTAGGTCCTTCGGTAGTTTTGACCCCGGCGGAGTCACCTAGTGCAG” is 8580 fluorescence intensity (a.u.); for “ATTAATCCATCGTCAATCGCGTGGGAACCAGCAAGCTTTCCGGAGTCACCTAGTGCAG” it is 8080 fluorescence intensity (a.u.); for “ATGCTGCTACTACTACTGCTCTCTCACTCTCGTGCATGCACGGAGTCACCTAGTGCAG” it is 12600 fluorescence intensity (a.u.).
